## Percent effect of library compounds

The chains behind the UniProt entries cited, without tags or fusion partners.
UniProt I6X8D2, whole entry: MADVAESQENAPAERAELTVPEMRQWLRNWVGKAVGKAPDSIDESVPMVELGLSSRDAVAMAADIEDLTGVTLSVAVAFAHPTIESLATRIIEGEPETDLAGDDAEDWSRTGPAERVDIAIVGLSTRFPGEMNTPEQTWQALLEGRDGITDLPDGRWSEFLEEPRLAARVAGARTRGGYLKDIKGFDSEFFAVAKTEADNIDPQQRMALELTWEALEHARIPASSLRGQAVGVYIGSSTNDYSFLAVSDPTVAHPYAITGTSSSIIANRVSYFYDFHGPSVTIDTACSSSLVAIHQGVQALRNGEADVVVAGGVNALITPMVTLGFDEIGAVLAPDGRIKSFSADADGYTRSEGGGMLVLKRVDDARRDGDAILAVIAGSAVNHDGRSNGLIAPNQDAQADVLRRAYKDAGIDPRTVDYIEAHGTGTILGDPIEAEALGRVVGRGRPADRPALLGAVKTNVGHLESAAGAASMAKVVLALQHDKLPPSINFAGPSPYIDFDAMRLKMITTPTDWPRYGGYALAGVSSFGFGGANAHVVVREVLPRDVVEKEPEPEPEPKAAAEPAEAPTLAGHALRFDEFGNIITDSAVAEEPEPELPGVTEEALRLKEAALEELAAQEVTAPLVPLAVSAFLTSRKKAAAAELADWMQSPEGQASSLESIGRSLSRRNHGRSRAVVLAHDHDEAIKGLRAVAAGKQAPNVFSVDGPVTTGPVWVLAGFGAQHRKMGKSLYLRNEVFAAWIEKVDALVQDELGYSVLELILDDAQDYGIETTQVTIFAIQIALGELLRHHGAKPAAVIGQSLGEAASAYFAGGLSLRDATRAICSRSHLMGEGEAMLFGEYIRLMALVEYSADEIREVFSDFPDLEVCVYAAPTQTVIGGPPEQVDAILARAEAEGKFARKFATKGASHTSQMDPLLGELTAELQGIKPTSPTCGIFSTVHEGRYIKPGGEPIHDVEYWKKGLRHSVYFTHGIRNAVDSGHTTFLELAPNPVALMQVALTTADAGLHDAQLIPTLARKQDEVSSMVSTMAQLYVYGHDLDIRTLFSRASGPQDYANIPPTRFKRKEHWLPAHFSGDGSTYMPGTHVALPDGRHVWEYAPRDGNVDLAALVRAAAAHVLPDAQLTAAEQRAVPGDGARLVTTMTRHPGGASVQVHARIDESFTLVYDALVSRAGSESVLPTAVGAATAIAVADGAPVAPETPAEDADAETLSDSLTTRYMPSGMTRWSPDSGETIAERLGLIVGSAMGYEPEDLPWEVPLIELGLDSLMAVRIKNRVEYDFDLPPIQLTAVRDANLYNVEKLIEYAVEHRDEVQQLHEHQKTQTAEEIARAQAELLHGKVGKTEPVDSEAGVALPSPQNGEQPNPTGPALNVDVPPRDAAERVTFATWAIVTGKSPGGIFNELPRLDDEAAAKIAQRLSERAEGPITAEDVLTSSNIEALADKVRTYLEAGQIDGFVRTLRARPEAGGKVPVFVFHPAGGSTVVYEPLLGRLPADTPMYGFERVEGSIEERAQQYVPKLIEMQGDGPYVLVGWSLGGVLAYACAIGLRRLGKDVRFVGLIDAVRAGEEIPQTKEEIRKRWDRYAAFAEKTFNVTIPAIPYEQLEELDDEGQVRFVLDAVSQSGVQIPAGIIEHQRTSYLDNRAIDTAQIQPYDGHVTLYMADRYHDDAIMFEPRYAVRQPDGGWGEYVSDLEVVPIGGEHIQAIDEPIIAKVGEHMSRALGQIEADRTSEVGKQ

From ChEMBL document CHEMBL3988442, “University of Dundee, Small-Polar-MMV Screening Library” (2021).

The filed quantity is “Percent Effect” (%). The record does not define 0% and 100%; most values in the screen are far below 50% and negative numbers occur (in some assays of this library far below -100). The compounds are a random part of those screened.

Toxoplasma: 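Assay of Toxoplasma gondii numbers, read through their beta-galactosidase reporter with a colour substrate. Compounds at 10 µM. The record gives no direction; the compounds picked for IC50 retests had high values, so higher reads as fewer parasites. Size under these conditions: about 67,000 compounds, about 260 of them at 50% or above in at least one test.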
Pks13 thioesterase: 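Enzyme assay of the thioesterase domain of polyketide synthase 13; the read-out is not stated. Target: Polyketide synthase Pks13, Mycobacterium tuberculosis (UniProt I6X8D2). Tested at 30 µM. The record gives no direction; the compounds picked for IC50 retests had high values, so higher reads as stronger inhibition. Of about 67,000 compounds tested this way, about 300 (0.46%) reached 50% or more in at least one test.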

N#Cc1ccccc1NC(=O)C1CN(C(=O)c2ccc3c(c2)OCO3)C1 gave Toxoplasma: -16.05%; Pks13 thioesterase: -20.23%.
CNC(=O)[C@@H]1[C@H]2CN(Cc3ccccn3)CCN2C[C@H]1c1ccccc1 gave Pks13 thioesterase: -3.564%.
O=C(CSc1nncs1)N1CCN(Cc2ccc(Cl)cc2)CC1 gave Toxoplasma: 2.655%; Pks13 thioesterase: 10.81%.
[H][C@@]12C[C@H](C(=O)N3CCCC3)[C@@]([H])(CN(c3ncc(F)cn3)C1)O2 gave Toxoplasma: -17.5%.
[H][C@@]12CCN(Cc3nccs3)C[C@@]1([H])O[C@@H](c1ccncn1)C2 gave Toxoplasma: -5.69%.
N#CC1(C(=O)N2CCCN(Cc3cscn3)CC2)CCCCC1 gave Toxoplasma: 2.967%; Pks13 thioesterase: -13.44%.
CN(C)CC(=O)N1CCOC2(CCCN(c3ncccc3F)C2)C1.O=C(O)C(F)(F)F.O=C(O)C(F)(F)F (configuration not stated) gave Toxoplasma: 2.302%.
C[C@@H]1CC[C@@H](C)N1C(=O)c1cc(COc2ccccc2)[nH]n1 gave Toxoplasma: -1.23%; Pks13 thioesterase: -40.75%.
CCn1cc(S(=O)(=O)Nc2nc3c(s2)CC(C)CC3)cn1 (configuration not stated) gave Toxoplasma: -4.174%; Pks13 thioesterase: -10.03%.
O=C(O)C(F)(F)F.O=C(O)C(F)(F)F.O=S(=O)(NCC1OCCc2cn(Cc3ccccn3)nc21)C1CC1 (configuration not stated) gave Toxoplasma: -4.901%.
Cc1ccc(NC(=O)N2CCOC(C)(c3cnn(C)c3)C2)c(C)c1 (configuration not stated) gave Toxoplasma: 0.8115%; Pks13 thioesterase: -3.899%.
CC(C)NC(=O)CN1CCCNCC1 gave Toxoplasma: 5.567%; Pks13 thioesterase: -10.76%.
COCCN1C(=O)CC[C@@H]2[C@@H]1CCN2Cc1c(C)noc1C gave Pks13 thioesterase: 2.013%.
O=C(NC1CCCCC1)c1nnc2ccc(N3CCOCC3)cc2n1 gave Toxoplasma: 4.916%.
CC(C)c1nc2n(n1)CC(NCc1nc(-c3ccsc3)no1)CC2 (configuration not stated) gave Toxoplasma: -0.1158%; Pks13 thioesterase: -7.112%.
Cc1noc2ncc(C(=O)NCC3CCS(=O)(=O)C3)cc12 (configuration not stated) gave Toxoplasma: -18.02%; Pks13 thioesterase: -6.844%.
Cc1cc(Nc2cnccn2)nc(C2CCCN(CCO)C2)n1 (configuration not stated) gave Toxoplasma: 1.357%; Pks13 thioesterase: 8.257%.
CCN(C)c1ncnc2c1CCN(Cc1nccs1)CC2 gave Pks13 thioesterase: -11.46%.
Cc1nccn1-c1ccc(N2CCC(NC(C)CC(C)C)CC2)cc1 (configuration not stated) gave Toxoplasma: 2.703%; Pks13 thioesterase: -3.064%.
CC(=O)N1CCCCC1c1nc2c(c(N3CCCCC3)n1)CN(C)CC2 (configuration not stated) gave Toxoplasma: -3.523%; Pks13 thioesterase: -33.99%.
OC(CNCCn1cccn1)COc1ccc(F)cc1 (configuration not stated) gave Toxoplasma: -10.42%; Pks13 thioesterase: -14.51%.
CCN(C(=O)c1nc2c(s1)CCCN2C)C(C)C gave Toxoplasma: 9.796%; Pks13 thioesterase: 22.62%.
CCOCCN1CCN(Cc2nnc(C3CC3)o2)CC1 gave Toxoplasma: 5.563%; Pks13 thioesterase: -33.68%.
CC(C)c1nnc(CN2CCCC(c3cc(C(N)=O)[nH]n3)C2)o1 (configuration not stated) gave Toxoplasma: -43.74%; Pks13 thioesterase: 5.493%.
Cc1nnn2c1COCC(CNC(=O)c1cnoc1C)C2 (configuration not stated) gave Toxoplasma: 6.088%; Pks13 thioesterase: -7.452%.
CCOC(=O)C(C)NC(=O)CCc1ccc(F)cc1 (configuration not stated) gave Toxoplasma: 3.953%; Pks13 thioesterase: 9.018%.

Once more, the final 2:

| compound | Toxoplasma | Pks13 thioesterase |
|---|---|---|
| `Cc1nnn2c1COCC(CNC(=O)c1cnoc1C)C2` (configuration not stated) | 6.088% | -7.452% |
| `CCOC(=O)C(C)NC(=O)CCc1ccc(F)cc1` (configuration not stated) | 3.953% | 9.018% |